Data as given in PMC2724173.
These are yes or no findings as the source states them, for the method shown.

Protein sequences, listed by entry. Tags and fused reporters are not part of them. Lines headed by an entry give the natural chain unless they say otherwise; changes in a name come on top.
UniProt Q04640: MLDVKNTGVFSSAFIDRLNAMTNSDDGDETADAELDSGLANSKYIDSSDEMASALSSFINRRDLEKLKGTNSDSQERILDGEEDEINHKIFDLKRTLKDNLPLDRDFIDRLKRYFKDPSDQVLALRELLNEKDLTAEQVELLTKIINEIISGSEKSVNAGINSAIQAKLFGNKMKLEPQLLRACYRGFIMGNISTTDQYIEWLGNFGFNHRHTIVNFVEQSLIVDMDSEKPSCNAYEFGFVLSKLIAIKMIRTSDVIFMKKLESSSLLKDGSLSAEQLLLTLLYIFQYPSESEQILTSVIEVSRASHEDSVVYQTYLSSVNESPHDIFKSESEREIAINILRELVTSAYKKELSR

Assays:
[1] = biological target: MxiC N-terminal truncation (residues 74–355) (Shigella flexneri) (UniProt Q04640); experiment: SEC; HiLoad 16/60 Superdex 200 column pre-equilibrated in 20 mM Tris (pH 7.5), 150 mM NaCl; both purified
[2] = biological target: MxiC full-length construct (residues 1–355) (Shigella flexneri) (UniProt Q04640); experiment: as above

Row | Substance | binding [1] | binding [2]
1 | MxiC N-terminal truncation (residues 74–355) (from UniProt Q04640 74-355) (domain or fragment) | no binding | 
2 | MxiC full-length construct (residues 1–355) (from UniProt Q04640 1-355) |  | no binding
